Results are given in words; binding and its absence hold for the method and conditions named. Binding seen in cells or lysates may run through a third protein. Some entries that bind do so weakly or less than the wild type. Each block holds one substance with its values, some of them ahead of it.
What was measured:
[1] = biological target: HSP27 (human (endogenous; the cell line of this experiment is not given)) (UniProt P04792); assay: co-IP; immuno-precipitates of endogenous HSP90, GRP78, HSP70 or HSP27 from cells expressing only endogenous levels; cells treated with vehicle, OSU-03012, pazopanib or AR-13; blots of co-precipitating proteins
[2] = biological target: c-MYC (human (endogenous in GBM12)) (UniProt P01106); assay: co-IP; GBM12 cells treated with vehicle or [OSU-03012 (2.0 uM) + sildenafil (2.0 uM)] for 30 min, lysed; immuno-precipitation for c-MYC or for HSPH1/p105, SDS PAGE and western blotting
[3] = biological target: HSPH1/p105 (human (endogenous in GBM12)) (UniProt Q92598); assay: as above
[4] = biological target: GRP78 (human (endogenous; the cell line of this experiment is not given)) (UniProt P11021); assay: co-IP; immuno-precipitates of endogenous HSP90, GRP78, HSP70 or HSP27 from cells expressing only endogenous levels; cells treated with vehicle, OSU-03012, pazopanib or AR-13; blots of co-precipitating proteins

The chains behind the UniProt entries cited, without tags or fusion partners. Residues count along the entry.
UniProt P04792: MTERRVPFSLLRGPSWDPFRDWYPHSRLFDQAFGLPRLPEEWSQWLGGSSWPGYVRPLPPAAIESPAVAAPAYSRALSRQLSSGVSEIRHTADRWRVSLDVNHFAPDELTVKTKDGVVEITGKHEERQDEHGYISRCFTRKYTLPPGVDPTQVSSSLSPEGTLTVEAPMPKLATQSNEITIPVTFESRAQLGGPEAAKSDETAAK
UniProt P01106: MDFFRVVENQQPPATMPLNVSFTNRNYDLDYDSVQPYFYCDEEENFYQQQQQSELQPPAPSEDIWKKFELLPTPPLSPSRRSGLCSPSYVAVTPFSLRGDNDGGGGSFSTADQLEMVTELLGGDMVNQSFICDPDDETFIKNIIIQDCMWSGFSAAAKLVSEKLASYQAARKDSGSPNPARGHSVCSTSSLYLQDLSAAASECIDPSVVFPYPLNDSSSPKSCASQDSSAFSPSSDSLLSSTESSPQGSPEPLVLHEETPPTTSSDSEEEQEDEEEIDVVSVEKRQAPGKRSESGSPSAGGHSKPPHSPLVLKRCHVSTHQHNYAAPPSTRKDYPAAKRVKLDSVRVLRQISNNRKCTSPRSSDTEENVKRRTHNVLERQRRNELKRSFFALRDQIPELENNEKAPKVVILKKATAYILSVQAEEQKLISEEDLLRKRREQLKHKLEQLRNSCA
UniProt Q92598: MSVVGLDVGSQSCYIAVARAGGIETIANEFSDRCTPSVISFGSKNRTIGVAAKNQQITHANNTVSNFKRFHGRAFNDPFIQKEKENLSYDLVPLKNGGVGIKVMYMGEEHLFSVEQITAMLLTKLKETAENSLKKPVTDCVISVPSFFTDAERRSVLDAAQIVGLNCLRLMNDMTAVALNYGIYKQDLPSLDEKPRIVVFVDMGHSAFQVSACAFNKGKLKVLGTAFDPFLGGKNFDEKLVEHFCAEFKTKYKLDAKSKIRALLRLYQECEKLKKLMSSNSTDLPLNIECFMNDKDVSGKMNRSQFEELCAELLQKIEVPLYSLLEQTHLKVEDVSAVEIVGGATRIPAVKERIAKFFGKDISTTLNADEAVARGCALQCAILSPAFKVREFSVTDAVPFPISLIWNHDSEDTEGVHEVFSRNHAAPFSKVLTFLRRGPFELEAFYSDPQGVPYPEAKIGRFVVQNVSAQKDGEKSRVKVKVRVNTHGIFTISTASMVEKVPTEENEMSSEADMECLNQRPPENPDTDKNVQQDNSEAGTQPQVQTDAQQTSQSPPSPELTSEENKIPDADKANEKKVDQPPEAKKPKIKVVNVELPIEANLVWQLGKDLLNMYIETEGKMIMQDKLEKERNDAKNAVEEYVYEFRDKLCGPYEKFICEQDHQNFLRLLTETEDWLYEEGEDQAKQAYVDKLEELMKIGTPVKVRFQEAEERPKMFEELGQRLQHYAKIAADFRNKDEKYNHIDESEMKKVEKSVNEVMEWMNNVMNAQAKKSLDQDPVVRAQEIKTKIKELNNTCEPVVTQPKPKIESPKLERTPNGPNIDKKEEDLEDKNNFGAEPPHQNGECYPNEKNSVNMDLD
UniProt P11021, residues 19-654: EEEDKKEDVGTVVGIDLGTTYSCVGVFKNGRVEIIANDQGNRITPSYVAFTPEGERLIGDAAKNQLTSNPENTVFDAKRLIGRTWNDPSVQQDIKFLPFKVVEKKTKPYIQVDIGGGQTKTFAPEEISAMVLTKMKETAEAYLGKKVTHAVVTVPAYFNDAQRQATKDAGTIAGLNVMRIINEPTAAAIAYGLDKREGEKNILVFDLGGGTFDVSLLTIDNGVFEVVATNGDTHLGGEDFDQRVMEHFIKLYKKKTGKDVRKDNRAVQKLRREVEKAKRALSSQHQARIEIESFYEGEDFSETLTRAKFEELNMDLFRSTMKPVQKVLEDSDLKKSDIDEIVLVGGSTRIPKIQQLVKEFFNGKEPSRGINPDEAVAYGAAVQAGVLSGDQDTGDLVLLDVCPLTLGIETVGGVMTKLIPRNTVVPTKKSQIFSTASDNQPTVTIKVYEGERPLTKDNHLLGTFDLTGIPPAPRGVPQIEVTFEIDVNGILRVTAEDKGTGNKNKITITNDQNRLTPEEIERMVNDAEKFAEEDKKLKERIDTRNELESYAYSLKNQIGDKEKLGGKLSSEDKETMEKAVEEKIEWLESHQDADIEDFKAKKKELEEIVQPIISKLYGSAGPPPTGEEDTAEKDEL

- binding [1]: binds
Substance: GRP78 (from UniProt P11021 19-654)

- binding [2]: binds
Substance: HSPH1/p105 (from UniProt Q92598 1-858)

- binding [3]: binds
Substance: c-MYC (from UniProt P01106 1-454)

- binding [4]: binds
Substance: HSP27 (from UniProt P04792 1-205)
